Laboratory results taken from article PMC6242693.
No constants are given. Whether binding was seen depends on the method and setting. In cells and extracts the contact can be indirect. Some results given as binding are weak or reduced against the parent protein; the word gives no strength. Sequences can lack the tags named with a protein.

T1: GFP-A (SpoIVFA fused to GFP) (B. subtilis) (UniProt P26936)
T1 sequence: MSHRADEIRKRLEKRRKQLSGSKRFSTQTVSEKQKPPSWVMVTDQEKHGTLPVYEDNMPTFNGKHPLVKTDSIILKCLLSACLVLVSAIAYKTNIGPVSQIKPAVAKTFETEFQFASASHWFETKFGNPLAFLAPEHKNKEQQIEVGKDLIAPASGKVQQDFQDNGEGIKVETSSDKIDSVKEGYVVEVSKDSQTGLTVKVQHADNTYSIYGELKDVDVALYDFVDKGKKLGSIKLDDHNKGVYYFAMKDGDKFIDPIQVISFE

T2: SpoIVFB (B) catalytic mutant E44Q fused to GFP (B. subtilis) (UniProt P26937)
T2 sequence: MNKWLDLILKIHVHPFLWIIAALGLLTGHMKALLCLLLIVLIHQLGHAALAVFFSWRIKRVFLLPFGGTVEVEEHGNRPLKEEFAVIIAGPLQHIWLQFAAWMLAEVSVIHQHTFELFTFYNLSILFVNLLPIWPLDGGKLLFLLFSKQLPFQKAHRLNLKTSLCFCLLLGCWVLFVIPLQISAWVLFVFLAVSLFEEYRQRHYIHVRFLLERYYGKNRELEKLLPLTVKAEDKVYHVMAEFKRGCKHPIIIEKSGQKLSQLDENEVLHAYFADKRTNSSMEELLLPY

B1: SpoIIIAH (AH) (protein, UniProt P49785 1-218)
chain: MLKKQTVWLLTMLSLVVVLSVYYIMSPESKNAVQMQSEKSASDSGEVATEKAPAKQDTKEKSGTETEKGKEDGTKGTKDSSADKETSAEASEKGTVVTETADDDLFTTYRLDLEDARSKEREELNAIVSSDDATAKEKSEAYDKMTALSEVEGTEKQLETLIKTQGYEDALVNAEGDKINITVKSDKHSKSKATAIIDLVAKEIKTMKDVAVTFEPSK
B2: SpoIIQ (Q) (protein, UniProt P71044 1-283)
chain: MREEEKKTSQVKKLQQFFRKRWVFPAIYLVSAAVILTAVLWYQSVSNDEVKDQLADNGGNSAYDNNDDAVEVGKSMENVAMPVVDSENVSVVKKFYETDAAKEEKEAALVTYNNTYSLSKGIDLAEKDGKDFDVSASLSGTVVKAEKDPVLGYVVEVEHADGLSTVYQSLSEVSVEQGDKVKQNQVIGKSGKNLYSEDSGNHVHFEIRKDGVAMNPLNFMDKPVSSIEKAATQETEESIQQSSEKKDGSTEKGTEEKSGEKKDDSTDKSGSKESSTTEDTEQS

Key:
[1] = molecular target: T1, GFP-A (SpoIVFA fused to GFP) (B. subtilis); assay: co-IP; B-GFP or GFP-A immunoprecipitated from detergent (digitonin)-solubilized membrane preparations, hour 3.5 of sporulation; silver-stained gel, MS or mutant strains for identification, immunoblots of load, flow through and IP
[2] = molecular target: T2, SpoIVFB (B) catalytic mutant E44Q fused to GFP (B. subtilis); assay: co-IP; B(E44Q)-GFP immunoprecipitated with anti-GFP antibody resin from crude membranes solubilized with 0.5% digitonin, sporulating cells at hour 4 (IVB+ strain; ΔIVB and ΔsigK strains compared); 4 h at 4°C; SDS-PAGE with silver staining, MS of excised bands, anti-σ^K immunoblot

Binder | binding [1] | binding [2]
B1 | binds | binds
B2 | binds | binds
